The results in this text go back to patent publication US20260078175A1 (Boehringer Ingelheim, published 2026).

No constants are given. Whether binding was seen depends on the method and setting. Some entries that bind do so weakly or less than the wild type.

This test deals with T1, Rabbit Sema3A (rabbit, UniProt G1T285 21-770).
T1 construct: Construct not described
T1 sequence: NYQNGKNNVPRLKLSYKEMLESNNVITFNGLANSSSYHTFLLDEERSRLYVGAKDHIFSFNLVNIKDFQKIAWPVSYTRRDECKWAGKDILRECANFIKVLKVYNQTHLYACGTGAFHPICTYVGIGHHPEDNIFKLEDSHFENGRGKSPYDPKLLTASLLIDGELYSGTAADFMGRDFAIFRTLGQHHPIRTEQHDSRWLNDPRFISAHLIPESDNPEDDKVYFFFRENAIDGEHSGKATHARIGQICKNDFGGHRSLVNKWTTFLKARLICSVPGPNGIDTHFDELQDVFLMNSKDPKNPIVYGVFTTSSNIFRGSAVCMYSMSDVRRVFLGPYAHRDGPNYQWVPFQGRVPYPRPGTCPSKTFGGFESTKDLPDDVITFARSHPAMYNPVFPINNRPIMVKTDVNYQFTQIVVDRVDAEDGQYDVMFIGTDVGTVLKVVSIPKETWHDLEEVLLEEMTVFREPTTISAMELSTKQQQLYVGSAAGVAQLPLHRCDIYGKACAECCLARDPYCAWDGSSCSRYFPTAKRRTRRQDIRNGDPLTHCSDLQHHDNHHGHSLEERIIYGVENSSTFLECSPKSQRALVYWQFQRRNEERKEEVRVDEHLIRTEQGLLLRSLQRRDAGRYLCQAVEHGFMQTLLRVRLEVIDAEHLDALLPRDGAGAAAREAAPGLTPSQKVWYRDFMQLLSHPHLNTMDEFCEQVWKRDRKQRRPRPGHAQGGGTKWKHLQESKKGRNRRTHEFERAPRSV
In words: SPR, comparison with Samsung scFv 1-3. (In SPR one partner is held on a chip, and binding of the other changes the refractive index at the surface.)

B1: Antibody of the invention (clone I) (antibody, human IgG1, kappa, L234A L235A, V domains shown)
VH: EVQLVESGGGLVQPGGSLRLSCAASGFTFSSYYMSWVRQAPGKGLEWVSTIIKSGGYAYYPDSVKDRFTISRDNSKNTLYLQMSSLRAEDTAVYYCVRGGQGAMDYWGQGTTVTVSS
VL: EIVLTQSPATLSLSPGERATLSCRASQSIGDYLHWYQQKPGQAPRLLIKYASQSISGIPARFSGSGSGTDFTLTITSLEPEDFAVYYCQQGYSFPYTFGGGTKLEIKR
notes: also called clone 1; anti-Sema3A antibody of the invention
Consider B1, for which the binding entry is on record as “binds”.
